Data as given in PubChem BioAssay AID504467 (National Center for Advancing Translational Sciences (NCATS), 2011).
In all, about 330,000 compounds went through this assay and about 7,700 (2.3%) were called active. The inconclusive results got no clear call from the source; some entries with a clear call stand among them for comparison. Calls come from the whole dose curve; as a rule, active = well fitted inhibition curve with a large enough effect; inconclusive = small, poorly fitted or top-dose-only effect, or effect the other way; inactive = flat fitted curve, though single readings scatter. Potencies of inconclusive entries are doubtful fits and often do not repeat.

Assay: qHTS screen for small molecules that inhibit ELG1-dependent DNA repair in human embryonic kidney (HEK293T) cells expressing luciferase-tagged ELG1; note: nearly all actives have a fitted effect of over 55% in size
Settings: HEK293T ELG1-luciferase reporter, luminescence, 16 h, DNA damage induced by 5-fluorouridine; series mostly up to 46.1 µM
How it was run: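 Luminescence from the luciferase reporter, measured 30 min after ONE-Glo reagent at room temperature, was the read-out. Beforehand, 2,000 cells per well were exposed for 16 hr at 37 °C to 5-fluorouridine together with compound or vehicle.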
Potency is the fitted concentration of half-maximal effect.

| Structure (SMILES) | Potency |
| --- | --- |
| COc1cccc(CNC(=O)[C@H](CCSC)NC(=O)N2CCn3c2nc2ccccc23)c1 | active: 18.3 µM |
| CCC(=O)c1ccc(OCC(=O)Nc2cc(S(=O)(=O)N3CCCCC3)ccc2N2CCN(CC)CC2)cc1 | inconclusive: 5.17 µM [inhibitor, single point] |
| COc1cc(S(=O)(=O)N2CCN(Cc3ccc4c(c3)OCO4)CC2)ccc1NC(C)=O | inactive |
| CCN(c1ccccc1)S(=O)(=O)c1cc(C(=O)Nc2cccc(Cl)c2)ccc1F | active: 23.1 µM |
| CN(C)c1ccc(-c2nnc(-c3cccs3)o2)cc1 | inconclusive: 1.64 µM [activator, partial curve] |
| O=C(NC(=S)Nc1ccc(S(=O)(=O)N2CCCC2)cc1)c1cccs1 | inconclusive: 25.9 µM [inhibitor, partial curve, poor fit] |
| CCc1ccc2[nH]c(=O)c(C(c3nnnn3CC3CCCO3)N3CCCc4ccccc43)cc2c1 (stereo not drawn) | inactive |
| COc1ccc(OC)c(N2CC(O)(c3ccccc3)[N+]3=C2SCCC3)c1 (stereo not drawn) | inconclusive: 11.6 µM [inhibitor, partial curve, poor fit] |
| Cc1cc(=O)[nH]c(N/N=C/C(C)c2ccccc2)n1 (stereo not drawn) | inactive |
| Cc1ccccc1C(OCCN(C)C)c1ccccc1 (stereo not drawn) | inactive |
| CCOC(=O)Cn1c(=NC(=O)c2cc(-c3cccs3)nc3ccccc23)sc2cc(S(N)(=O)=O)ccc21 | inconclusive: 2.31 µM [inhibitor, full curve] |
| Clc1ccc(Cn2ncc3c(NCc4ccccc4)ncnc32)cc1 | inconclusive: 8.2 µM [inhibitor, partial curve] |
| Nc1c(C(=O)Nc2ccc3c(c2)OCCO3)nnn1Cc1ccccc1 | inconclusive: 14.6 µM [activator, partial curve] |
| COc1ccc(N(Cc2ccccc2)S(=O)(=O)c2cccc(C(=O)Nc3ccccn3)c2)cc1 | inactive |
| OCC1(Cc2ccc(F)cc2F)CCCN(Cc2ccc(Cl)cc2)C1 (stereo not drawn) | inconclusive: 2.31 µM [inhibitor, single point] |
| O=C(O)C1CCC(CNCc2ccncc2)CC1 (stereo not drawn) | inconclusive: 18.3 µM [activator, partial curve, poor fit] |
| Cc1ccc2c(CSc3nc4ccccc4c(=O)n3CCCO)cc(=O)oc2c1C | inconclusive: 0.731 µM [inhibitor, full curve, poor fit] |
| O=c1c2ccccc2oc2cc(-c3ccc(CN4CCOCC4)cc3)ccc12 | inconclusive: 1.3 µM [activator, partial curve] |
| C=C1c2cc(CC)ccc2NC(=O)N1c1ccc(C)cc1 | inconclusive: 20.6 µM [activator, partial curve, poor fit] |
| CC1CCN(c2ccc(C(=O)NCc3ccc4c(c3)OCO4)cc2[N+](=O)[O-])CC1 | inconclusive: 29.1 µM [inhibitor, single point] |
| CCOc1ccc2[nH]c3c(NCCCOC)ncnc3c2c1 | inconclusive: 9.2 µM [activator, partial curve] |
| O=C(COc1ccc2ccc(=O)oc2c1)N1CCc2ccccc21 | inconclusive: 16.4 µM [activator, partial curve] |

Given with bars between the fields: 2 of the compounds above.
Structure (SMILES) | Potency
CCN(c1ccccc1)S(=O)(=O)c1cc(C(=O)Nc2cccc(Cl)c2)ccc1F | active: 23.1 µM
CN(C)c1ccc(-c2nnc(-c3cccs3)o2)cc1 | inconclusive: 1.64 µM [activator, partial curve]

Further compounds

| Structure (SMILES) | Potency |
| --- | --- |
| COc1ccc(Cc2c(N)nc(C)nc2N)cc1 | inactive |
| Cc1cccc(-n2cnc(C(=O)N3CCN(C)CC3)c2)n1 | inconclusive: 16.4 µM [activator, partial curve, poor fit] |
| COc1ccc(CCNC(=O)COc2ccc(N(C)S(=O)(=O)c3ccc(Cl)cc3)cc2)cc1 | inconclusive: 16.4 µM [inhibitor, single point] |
| O=C(/C=C/c1cccs1)Nc1scc(-c2ccccc2)c1C(=O)O | inconclusive: 2.06 µM [activator, full curve] |
| O=C1c2ccc(Oc3ccc4c(c3)C(=O)N(CCCO)C4=O)cc2C(=O)N1CCCO | inconclusive: 20.6 µM [inhibitor, single point] |
| O=C(Nc1nc2ccccc2s1)c1ccccc1[N+](=O)[O-] | inconclusive: 20.6 µM [activator, partial curve] |
| Cc1ccccc1OCCn1cnc2c(N)ncnc21 | inconclusive: 18.4 µM [activator, partial curve] |
| CC[C@@]1(c2ccccc2OC)C(=O)N(C(=O)OC)N1C(=O)OC | inactive |
| Cc1cc(C)c(NS(=O)(=O)c2ccc3c(c2)NC(=O)CCS3)c(C)c1 | inconclusive: 29.1 µM [inhibitor, single point] |
| Cc1ccc2c(cnn2C(=O)CCC(=O)NCc2cccc(Cl)c2)c1 | inconclusive: 23.1 µM [activator, partial curve, poor fit] |
| CC1CCN(C(=O)c2ccccc2NC(=O)c2cccc(S(=O)(=O)N(C)C)c2)CC1 | inactive |
| CCn1c(SCC(=O)Nc2nccs2)nnc1-c1cc2cccc(OC)c2o1 | inactive |
| c1ccc(N2CCN(c3ncnc4c3oc3ccccc34)CC2)cc1 | inconclusive: 13 µM [inhibitor, single point] |
| COc1cccc(-c2cc(C(F)(F)F)nc(N3CCOCC3)n2)c1 | inconclusive: 0.184 µM [activator, single point] |
| Nc1nc(SCc2ccc(F)cc2)ns1 | inconclusive: 29.1 µM [activator, single point] |
| Cc1ccc(-n2nc3ccc(NC(=O)c4cccc([N+](=O)[O-])c4C)cc3n2)cc1 | inconclusive: 1.46 µM [inhibitor, full curve] |
| COc1ccc(OC)c(NS(=O)(=O)c2ccc(SC)cc2)c1 | inconclusive: 4.61 µM [inhibitor, partial curve, poor fit] |
| CCC(C)NC(=O)c1c(N)n(/N=C/c2cccnc2)c2nc3ccccc3nc12 (stereo not drawn) | active: 11.6 µM |
| O=C(COC(=O)/C=C/c1ccc(Cl)cc1Cl)NCCC1=CCCCC1 | inconclusive: 20.6 µM [activator, partial curve, poor fit] |
| O=C(Nc1ccc2c(c1)CCC2)c1ccccc1F | inconclusive: 2.59 µM [activator, full curve] |
| COc1ccc(-c2nsc(SCC(=O)Nc3cc(C)on3)n2)cc1 | inconclusive: 18.4 µM [activator, partial curve] |
